Earlier results, collected in patent publication EP3482756A1, “PHARMACEUTICAL COMPOSITION AND USE OF THE PHARMACEUTICAL COMPOSITION” (Lambdafin Sp. z o.o., priority 2017, dated 2019).

Conditions: patients with type 2 diabetes, primary prevention of ischemic heart disease

CC(C)c1c(C(=O)Nc2ccccc2)c(-c2ccccc2)c(-c2ccc(F)cc2)n1CC[C@@H](O)C[C@@H](O)CC(=O)O [atorvastatin]
reduction of prevalence of the first-order endpoint (acute coronary syndromes, coronary revascularization or brain stroke): 30%
